Data published in PubChem BioAssay AID2685 (National Center for Advancing Translational Sciences (NCATS), 2010).
Some of the results follow. The main result of the screen is listed elsewhere. These columns were measured beside it and carry no call. Most of these compounds were active or inconclusive in the main read-out, so they are no random draw. Words in brackets tell the shape of the fitted curve; partial curves, single points and poor fits give uncertain potencies.

Experiment: qHTS Assay for Lipid Storage Modulators in Drosophila S3 Cells;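 as to cell number change: cells counted by Cell Tracker Red CMTPX staining in the red channel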
Details: BODIPY lipid droplet fluorescence, 18-24 h; for cell number change: measured here: cell count max response, cells fed with added oleic acid
Outline: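 Drosophila S3 cells got compounds at several concentrations plus oleic acid (400 uM solution). Laser-scanning cytometry with 488 nm excitation read lipid droplets at 500-530 nm and cells at 575-640 nm. Percent activity was relative to 20 uM Triacsin C.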

[1] = measured here: lipid fluorescence (Fed channel) AC50, cells fed with added oleic acid
[2] = measured here: cell number channel AC50, cells fed with added oleic acid

Structure (SMILES)	cell number change	AC50 [1]	AC50 [2]
O=C1/C(=C/c2ccc(Br)cc2)Oc2cc(O)ccc21	-0.118%	–	–
CN(CC/C=C1/c2ccccc2CSc2ccccc21)CCCO	-8.68%	29.1 µM [rising, partial curve]	–
CCN(CC)C(=O)CCS(=O)(=O)c1cccc2nonc12	0.988%	18.4 µM [falling, partial curve]	–
Cc1c(C(=O)NCc2ccccc2)oc2ccc(S(=O)(=O)N3CCCC3)cc12	-33.1%	–	8.2 µM [falling, partial curve]
O=C(COC(=O)c1ccccc1NC(=O)c1ccccc1)c1ccc([N+](=O)[O-])cc1	-2.84%	29.1 µM [falling, partial curve]	–
Brc1c(OCCOCCn2cncn2)ccc2ccccc12	314%	16.4 µM [rising, partial curve]	18.4 µM [rising, partial curve]
O=C(c1ccco1)N1CCN(c2ccc(N3CCCCC3)nn2)CC1	-5.43%	11.6 µM [falling, partial curve, poor fit]	3.66 µM [falling, single point]
CC(C)(C)C1CCC2(CC1)NC(CO)(CO)CO2 (configuration not stated)	-15.4%	1.46 µM [falling, partial curve]	–
COC(=O)C1C2C=CC3(CN(C(C)C)C(=O)C13)O2 (configuration not stated)	37.9%	29.1 µM [rising, single point]	0.92 µM [rising, full curve, poor fit]
CC(CN1CCCCC1)OC(=O)c1ccccc1F (configuration not stated)	20.7%	29.1 µM [falling, single point]	–
COc1ccc(S(=O)(=O)NNC(N)=S)cc1	21.2%	23.1 µM [falling, partial curve, poor fit]	–
Cc1ccc(NC(=O)C(C)c2ccc(-c3ccccc3)c(F)c2)c(C)c1 (configuration not stated)	2.17%	0.0326 µM [rising, full curve, poor fit]	–
Cc1ccc(N2C(=O)Nc3ccccc3C2(O)C(=O)N2CCN(c3ccccn3)CC2)cc1C (configuration not stated)	34.3%	14.6 µM [rising, partial curve, poor fit]	14.6 µM [rising, single point]
Cc1occc1C(=O)N(C)Cc1nc(-c2ccccc2)no1	16.1%	2.91 µM [rising, single point]	–
Cn1c(C(=O)NCCCN2CCCC2=O)cc2c(=O)n(C)c3ccccc3c21	58.2%	5.17 µM [rising, full curve]	5.8 µM [rising, partial curve]
COc1ccc(-c2nc(CS(=O)CC(=O)NC3CCCc4ccccc43)c(C)o2)cc1OC (configuration not stated)	58.6%	14.6 µM [rising, partial curve]	11.6 µM [rising, partial curve]
COc1ccc(NC(=O)CCNC(=O)Cn2cnc3ccccc3c2=O)cc1OC	-8.12%	–	–
O=C(NCCS(=O)(=O)N1CCN(c2ccccc2F)CC1)c1ccc(Br)cc1	36.3%	–	29.1 µM [rising, single point]
CCCCn1nc(C(=O)NCC2COc3ccccc3O2)c2ccccc2c1=O (configuration not stated)	-29.4%	23.1 µM [falling, partial curve]	–

Structure (SMILES)	cell number change	AC50 [1]	AC50 [2]
O=c1cc2c(nn1Cc1cccc(Cl)c1)-c1ccccc1CC2	-9.14%	6.51 µM [rising, single point]	–
CCn1c2ccccc2c2cc(CN3CCN(S(=O)(=O)Cc4ccccc4)CC3)ccc21	35.4%	–	18.4 µM [rising, single point]
Cc1cc(C)n(C2CC(=O)N(c3cc(Cl)cc(Cl)c3)C2=O)n1 (configuration not stated)	6.52%	1.84 µM [rising, full curve, poor fit]	–
COc1ccccc1[C@@H]1C(c2cccc(C)c2)=NN(c2ccccc2)[C@H]1C(=O)N1CCOC1=O	18.3%	29.1 µM [rising, single point]	–
COc1ccccc1/C=C/C(=O)OCC(=O)c1c[nH]c2ccccc12	3.44%	2.31 µM [rising, partial curve]	–
COc1cccc2c1OC1(C)CC2NC(=O)N1 (configuration not stated)	13.1%	29.1 µM [falling, single point]	–
CCCOc1cccc(CN2CCCCC2c2cccnc2)c1 (configuration not stated)	4.49%	0.13 µM [rising, full curve]	4.61 µM [rising, single point]
COc1ccc(CN2C(=O)[C@@H]3C(c4ccccc4Cl)=NO[C@@H]3C2=O)cc1	0.39%	0.731 µM [rising, full curve, poor fit]	–
C/C=C/c1ccc(OCCCCn2cncn2)c(OC)c1	-13.7%	29.1 µM [rising, single point]	–
CC(C)(C)OC(=O)N1CCC(c2c(C(=O)NCC3CCN(C4CCCC4)C3)cnn2-c2ccccc2)CC1 (configuration not stated)	2.29%	–	–
CN(C)c1ccc(NC(=O)CN2C(=O)c3ccccc3C2=O)cc1	-0.587%	29.1 µM [falling, single point]	–
COc1ccccc1CCC(=O)OCC(=O)c1c(N)n(CC(C)C)c(=O)n(C)c1=O	-9.79%	4.11 µM [falling, full curve]	–
O=C(CSc1nc2ncccc2[nH]1)Nc1ccc2c(c1)OCO2	-24%	20.6 µM [falling, single point]	–
Cc1ccc2nc(C(=O)N3CCc4c([nH]c5ccccc45)C3c3ccccn3)cn2c1 (configuration not stated)	25.1%	0.103 µM [rising, full curve, poor fit]	–
COc1ccc(N2CCN(C(=O)C3CC(O)CN3S(=O)(=O)c3ccc([N+](=O)[O-])cc3)CC2)cc1 (configuration not stated)	20%	–	–
NC(=O)c1cccc2c(=O)oc3ccccc3c12	-3.17%	–	–
Cc1cc(-n2cnc3c(=O)[nH]cnc32)ccc1N	15.7%	7.31 µM [rising, partial curve]	–
CCN(CC)CCNC(=O)NC(=O)c1ccc(Cl)cc1	16%	0.58 µM [falling, single point]	–
Nc1nc(Nc2ccccc2)nc(C(F)(F)F)n1	–	0.58 µM [falling, single point]	–

Ordered by length of the SMILES (rising): part of the list above.
Structure (SMILES)	cell number change	AC50 [1]	AC50 [2]
NC(=O)c1cccc2c(=O)oc3ccccc3c12	-3.17%	–	–
C/C=C/c1ccc(OCCCCn2cncn2)c(OC)c1	-13.7%	29.1 µM [rising, single point]	–
O=c1cc2c(nn1Cc1cccc(Cl)c1)-c1ccccc1CC2	-9.14%	6.51 µM [rising, single point]	–
Cc1cc(C)n(C2CC(=O)N(c3cc(Cl)cc(Cl)c3)C2=O)n1 (configuration not stated)	6.52%	1.84 µM [rising, full curve, poor fit]	–
CCn1c2ccccc2c2cc(CN3CCN(S(=O)(=O)Cc4ccccc4)CC3)ccc21	35.4%	–	18.4 µM [rising, single point]
Cc1ccc2nc(C(=O)N3CCc4c([nH]c5ccccc45)C3c3ccccn3)cn2c1 (configuration not stated)	25.1%	0.103 µM [rising, full curve, poor fit]	–
COc1ccc(CN2C(=O)[C@@H]3C(c4ccccc4Cl)=NO[C@@H]3C2=O)cc1	0.39%	0.731 µM [rising, full curve, poor fit]	–
COc1ccccc1[C@@H]1C(c2cccc(C)c2)=NN(c2ccccc2)[C@H]1C(=O)N1CCOC1=O	18.3%	29.1 µM [rising, single point]	–
CC(C)(C)OC(=O)N1CCC(c2c(C(=O)NCC3CCN(C4CCCC4)C3)cnn2-c2ccccc2)CC1 (configuration not stated)	2.29%	–	–
